doi:10.1101/2022.10.05.510992

Biological target: NBCn1 C-terminal tail (bait of the pull-down with mass spectrometry)
Experiment: affinity purification with mass spectrometry

B1: LLGL1 (lethal (2) giant larvae 1) (protein, UniProt Q15334 1-1064)
chain: MMKFRFRRQGADPQREKLKQELFAFNKTVEHGFPNQPSALAFDPELRIMAIGTRSGAVKIYGAPGVEFTGLHRDAATVTQMHFLTGQGRLLSLLDDSSLHLWEIVHHNGCAHLEEALSFQLPSRPGFDGASAPLSLTRVTVVLLVAASDIAALGTEGSSVFFLDVTTLTLLEGQTLAPGEVLRSVPDDYRCGKALGPVESLQGHLRDPTKILIGYSRGLLVIWNQASQCVDHIFLGNQQLESLCWGRDSSTVVSSHSDGSYAVWSVDAGSFPTLQPTVATTPYGPFPCKAINKILWRNCESGGHFIIFSGGMPRASYGDRHCVSVLRAETLVTLDFTSRIIDFFTVHSTRPEDEFDDPQALAVLLEEELVVLDLQTPGWPAVPAPYLAPLHSSAITCSAHVASVPAKLWARIVSAGEQQSPQPVSSALSWPITGGRNLAQEPSQRGLLLTGHEDGTVRFWDASGVALRPLYKLSTAGLFQTDCEHADSLAQAAEDDWPPFRKVGCFDPYSDDPRLGVQKVALCKYTAQMVVAGTAGQVLVLELSDVPVEQAVSVAIIDLLQDREGFTWKGHERLSPRTGPLPWPAGFQPRVLVQCLPPAAVTAVTLHTEWSLVAFGTSHGFGLFDYQRKSPVLARCTLHPNDSLAMEGPLSRVKSLKKSLRQSFRRIRKSRVSGKKRAANASSKLQEANAQLAEQACPHDVEMTPVQRRIEPRSADDSLSGVVRCLYFADTFLRDGAHHGPTMWAGTNSGSVFAYALEVPAAAVGGEKRPEQAVEAVLGKEVQLMHRAPVVAIAVLDGRGRPLPEPYEASRDLAQAPDMQGGHAVLIASEEQFKVFTLPKVSAKTKFKLTAHEGCRVRKVALATFASVACEDYAETCLACLTNLGDVHVFSVPGLRPQVHYSCIRKEDISGIASCVFTRHGQGFYLISPSEFERFSLSARNITEPLCSLDINWPRDATQASYRIRESPKLSQANGTPSILLAPQSLDGSPDPAHSMGPDTPEPPEAALSPMSIDSATSADTTLDTTGDVTVEDVKDFLGSSEESEKNLRNLAEDEAHACAILIK
With B1 as the binder, how does the binding read?
Its binding is “binds”.

These are yes or no findings as the source states them, for the method shown. In cells and extracts the contact can be indirect. A yes stands for co-enrichment or nearness to the bait. Other partners may have been found.
